The text below walks through data of publication PMC8639500, “SSTP1, a Host Defense Peptide, Exploits the Immunomodulatory IL6 Pathway to Induce Apoptosis in Cancer Cells” (Frontiers in Immunology, 2021).

These are yes or no findings as the source states them, for the method shown. Binding seen in cells or lysates may run through a third protein. A result given as binding can be weak or reduced; the word gives no strength.

For assay [1], the target named is T1, SSTP1 (Temporin 1IDau1), biotin-labelled (Indosylvirana aurantiaca).
T1 sequence (peptide, biotin (labelled with D-Biotin Succinimidyl ester; position not stated)): FLPLLISALTSLFPKLGK
In words: pull-down; biotin-labelled peptide incubated with HSC-4 cell lysate (1 mg protein) for 1 hour at 4°C, then overnight with streptavidin Dynabeads; buffer 0.025 M Tris, 0.15 M NaCl, 0.001 M EDTA, 0.5% NP40, 0.5% Triton X 100, 5% glycerol, pH 7.4; western blot for IL6Rα; only the target purified.

Assay [2] concerns the target IL6Rα (human (endogenous in HSC-4)). In words: FRET or BRET; HSC-4 cells treated with biotin-labelled SSTP1 (10 µM) for 30 minutes, washed, fixed and stained for IL6Rα; streptavidin-Alexa Fluor-488 and anti-mouse Alexa Fluor-555 as FRET pair; only the binder purified. In general terms: Bioluminescence resonance energy transfer reports proximity on the nanometre scale.

Turning to “IL6Rα (human (endogenous in HSC-4)) (receptor)”, in assay [1], the binding result is “binds”.
On to FLPLLISALTSLFPKLGK (biotin (labelled with D-Biotin Succinimidyl ester; position not stated)) [SSTP1 (Temporin 1IDau1), biotin-labelled], for which, in assay [2], the binding result is listed as “binds”.
